Reference: publication PMC11213209
These are yes or no findings as the source states them, for the method shown. Binding seen in cells or lysates may run through a third protein. Some entries that bind do so weakly or less than the wild type. Sequences can lack the tags named with a protein.

Columns and labels:
[1] = target: mitochondrial thioredoxin reductase (TXNRD2), V5-tagged (human) (UniProt Q9NNW7); experiment: condition: only cells treated with erastin (2.5 μM, 18 hours); co-IP; HT-1080 cells overexpressing TXNRD2 and TXN2, treated with erastin alone (2.5 μM, 18 hours), lysed with NEM
[2] = target: mitochondrial thioredoxin reductase (TXNRD2), V5-tagged (human) (UniProt Q9NNW7); experiment: co-IP; HT-1080 cells overexpressing TXNRD2-V5 and TXN2-myc, lysed with NEM; untreated, supplemented with CoA (100 μM, 18 hours), or erastin (2.5 μM, 18 hours) combined with CoA (100 μM)

B1: mitochondrial thioredoxin (TXN2), myc-tagged (protein, UniProt Q99757 60-166)
chain: TTFNIQDGPDFQDRVVNSETPVVVDFHAQWCGPCKILGPRLEKMVAKQHGKVVMAKVDIDDHTDLAIEYEVSAVPTVLAMKNGDVVDKFVGIKDEDQLEAFLKKLIG
- binding [1]: no binding
- binding [2]: binds
